This is one part of the list. Shown are side measurements of this screen, not its main read-out; they come without a call. Compounds called inactive in the main read-out are mostly missing here. Potencies come from curve fits of mixed quality, noted in brackets.

A short description of the assay: qHTS Assay for Lipid Storage Modulators in Drosophila S3 Cells.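 On cell number change: cells counted by Cell Tracker Red CMTPX staining in the red channel.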 The settings on record: BODIPY lipid droplet fluorescence, 18-24 h; for cell number change: measured here: cell count max response, cells fed with added oleic acid. The procedure, abridged: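 Drosophila S3 cells loaded with oleic acid (400 uM, as added) and compounds at several concentrations; lipid droplets imaged by 488-nm laser-scanning cytometry, 500–530 nm intensity and object ratio to cell channel. Percent activity normalized to 20 uM Triacsin C.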
For orientation: In qHTS, concentration-response curves come from the screen itself.

Setting [1] is: measured here: cell number channel AC50, cells fed with added oleic acid.
Setting [2] is: measured here: lipid fluorescence (Fed channel) AC50, cells fed with added oleic acid.

One may read the AC50 as the concentration at which the activity in the assay is half-maximal. Read a low AC50 as activity at low concentration. In the case of `Cc1ccc(-n2cc3ccc([N+](=O)[O-])cc3n2)cc1`, the cell number change was -40.4%. In addition, under setting [1], the AC50 was 16.4 µM [falling, single point]. Under setting [2], the AC50 is 20.6 µM [falling, single point].

On to `C[C@H](NC(=O)c1nc[nH]c1C(=O)N(C)Cc1ccccc1)C(=O)OC(C)(C)C`, for which, under setting [2], the AC50 is 1.16 µM [falling, partial curve].

With `O=C1Cc2cc(NS(=O)(=O)c3cc(F)ccc3F)cc3c2N1CCC3`, the AC50 reads like this: under setting [1], 1.3 µM [rising, partial curve]; under setting [2], 0.82 µM [rising, partial curve].

With `COc1ccc2[nH]c(=O)c(C3c4cc(OC)c(OC)cc4CCN3C(=O)c3ccco3)cc2c1` (stereo unspecified), the cell number change was -5.13%. Besides, the AC50 under setting [2] was 6.51 µM [falling, partial curve].

As for `CSc1nc(O)c(C(c2ccc(C)cc2)c2c(O)nc(SC)[nH]c2=O)c(=O)[nH]1`, the cell number change was -12.1%. Besides, the AC50 under setting [2] was 18.4 µM [rising, single point].

As for `Cc1ccccc1CN(c1ccc(C(=O)Nc2cccnc2)cc1)S(C)(=O)=O`, the cell number change worked out at 102%. Moreover, the AC50 under setting [1] is 14.6 µM [rising, partial curve]. In addition, the AC50 under setting [2] was 2.59 µM [rising, partial curve].

Turning to `CC(C)(C)C(=O)N(Cc1ccc(Cl)cc1)c1cnccn1`, the cell number change is -31.7%. For the same compound, the AC50 under setting [1] was 29.1 µM [falling, single point]. For the same compound, the concentration at half-maximal activity (AC50) under setting [2] was 29.1 µM [falling, single point].

For the compound `CNC(C)C#Cc1ccc2c(=O)c3c(OC)cccc3oc2c1` (stereo unspecified), the cell number change was -39.2%. Besides, under setting [2], the AC50 is 29.1 µM [falling, single point].

Regarding `Cc1cc(NS(=O)(=O)c2ccc(NC(=O)c3ccco3)cc2)nc(C)n1`, the cell number change came out at 10.7%.

Turning to `Cc1ccc(C)c(S(=O)(=O)ON2C(=O)c3ccccc3C2=O)c1`, the cell number change was -39.7%. The AC50 under setting [1] is 11.6 µM [falling, partial curve, poor fit].

Turning to `CSCC[C@H](NC(=O)[C@@H]1Cc2ccccc2CN1)C(=O)NC[C@H]1CC[C@H](C(=O)O)CC1`, the cell number change came out at 2.42%.

In the case of `CC(C)(C)N1CC(c2nc3ccccc3n2CCOc2ccccc2)CC1=O` (stereo unspecified), the cell number change was 54.5%. Further, the AC50 under setting [1] is 6.51 µM [rising, single point]. For the same compound, the AC50 under setting [2] was 0.231 µM [rising, full curve, poor fit].

As to `Cc1ccc2c(C)c(C(=O)N(Cc3ccc(N(C)C)cc3)C3CCS(=O)(=O)C3)oc2c1` (stereo unspecified), the cell number change was -1.73%. Further, the AC50 under setting [2] was 18.4 µM [falling, single point].

`COc1ccc(N(CC(=O)N2CCC(C(N)=O)CC2)S(=O)(=O)c2ccccc2)cc1`: the cell number change is 16.7%. For the same compound, the AC50 under setting [2] is 25.9 µM [falling, single point].

For `CC(C)(C)C(=O)c1cn(CC(=O)O)c2ccccc12`, the cell number change was -12%.

In the case of `Nc1nc(SCC(=O)NCc2ccccc2)n[nH]1`, the cell number change is -0.585%. Moreover, the AC50 under setting [2] was 8.2 µM [rising, single point].

In the case of `COC(=O)c1ccccc1NC(=O)COc1ccccc1[N+](=O)[O-]`, the cell number change is -12.6%. Besides, the AC50 under setting [2] is 0.082 µM [falling, full curve, poor fit].

On to `CCNc1nc(NCC)nc(OCCOC(=O)Nc2ccccc2)n1`, for which the cell number change was -9.16%. In addition, the AC50 under setting [2] was 1.16 µM [rising, full curve].

`Cc1ccc(-c2nc3ncccn3c2NC2CCCCC2)o1`: the cell number change was found to be 75.6%. Besides, under setting [1], the AC50 is 10.3 µM [rising, partial curve]. Moreover, the AC50 under setting [2] was 20.6 µM [rising, partial curve].

As to `Cc1ccc2nc(-c3ccccc3)c(CC(=O)O)c(C(=O)O)c2c1`, the cell number change stood at 13.9%. The AC50 under setting [2] was 0.00461 µM [rising, full curve].

Take `COc1ccc(C(=O)NC2CCN(CC(=O)N3CCCCC3)CC2)cc1`: the cell number change worked out at 7.21%. The AC50 under setting [2] is 0.651 µM [rising, partial curve, poor fit].

As for `COc1ccc(-c2cc(=O)oc3c(C)c(OCC(=O)NCC4CCC(C(=O)O)CC4)ccc23)cc1` (stereo unspecified), the cell number change was 18.8%.

Take `Cc1ccc(S(=O)(=O)N2C(=O)CCC2C(=O)N2CCN(C)CC2)cc1` (stereo unspecified): the cell number change was 6.82%. The AC50 under setting [2] is 6.51 µM [falling, single point].

With `COc1cccc(CNc2ccc(N3CCCCC3)cc2)c1OC`, the cell number change is -45.9%. The AC50 under setting [1] was 18.4 µM [falling, partial curve]. Further, the AC50 under setting [2] was 20.6 µM [falling, partial curve].

For `CCn1c(SCC(=O)Nc2ccccc2C(=O)OC)nc2c1c(=O)n(C)c(=O)n2C`, the cell number change was 1.39%. Besides, the half-maximal activity concentration (AC50) under setting [2] is 29.1 µM [falling, single point].

As to `O=C(c1ccco1)N1CCN(c2ccccc2F)CC1`, the cell number change amounted to 30.5%.

Turning to `CCc1nnc(NC(=O)CSc2nnc(-c3ccco3)n2CC)s1`, the cell number change was -7.02%. Further, the AC50 under setting [2] was 29.1 µM [rising, single point].

Consider `CS(=O)(=O)c1ccccc1-c1nnc(-c2ccc(Cl)cc2)o1`, for which the cell number change is -18.3%. In addition, under setting [1], the AC50 is 0.146 µM [falling, full curve, poor fit]. Further, the AC50 under setting [2] is 4.61 µM [falling, full curve, poor fit].

For `OCCCCC#Cc1c(-c2ccsc2)sc2ccccc12`, the cell number change was 4.85%. The AC50 under setting [2] was 29.1 µM [rising, single point].

As for `CCC1Oc2ccc(C)cc2N(CC(=O)NCC2CCCO2)C1=O` (stereo unspecified), the cell number change is -19%.

As for `Cc1ccc2c(c1)N(CC(=O)OCC(=O)NCc1ccccc1)C(=O)CO2`, the cell number change is -25.7%. Moreover, the AC50 under setting [2] is 5.17 µM [falling, single point].

Consider `Cc1nnc(SCCC(=O)Nc2nc(-c3ccccc3)ns2)s1`, for which the cell number change is -28.9%. For the same compound, the AC50 under setting [2] is 4.11 µM [rising, full curve, poor fit].

As to `COCCSc1nnc(NC(=O)CCS(=O)(=O)Cc2ccccc2)s1`, the cell number change came out at 22.9%. For the same compound, the AC50 under setting [2] is 29.1 µM [rising, single point].

For `O=S(=O)(NCc1ccccc1)NCc1cccc(C(F)(F)F)c1`, the cell number change amounted to 8.68%.

As to `NS(=O)(=O)c1ccc(CCN2C(=O)CCC2=O)cc1`, the cell number change was 20.5%.

For `O=C1C2=C(CCCC2)C(=O)N1CNc1ccccc1`, the cell number change was 3.3%. Also, the AC50 under setting [2] is 6.51 µM [rising, single point].

In the case of `COc1c(S(=O)(=O)n2nc(C)cc2C)ccc(Cl)c1Cl`, the cell number change worked out at 72.7%. For the same compound, the AC50 under setting [1] was 11.6 µM [rising, partial curve, poor fit]. For the same compound, under setting [2], the AC50 is 0.0326 µM [rising, full curve, poor fit].

On to `CCOC(=O)Cc1csc(NC(=O)c2cc(=O)c3ccccc3o2)n1`, for which the cell number change was -21.8%. Besides, under setting [2], the AC50 is 0.92 µM [falling, full curve, poor fit].

As for `COc1cc(NC(=O)CSc2nc3ccccc3cc2C)c(C(=O)O)cc1OC`, the cell number change turned out to be 0.626%. For the same compound, the AC50 under setting [1] was 0.731 µM [falling, single point]. Also, the AC50 under setting [2] is 1.16 µM [falling, single point].

For the compound `COc1cc(C)ccc1OCCCOc1ccccc1Br`, the cell number change is -39.7%. Also, the half-maximal activity concentration (AC50) under setting [1] was 16.4 µM [falling, partial curve, poor fit]. Further, the AC50 under setting [2] was 16.4 µM [falling, partial curve].

`O=C(NNC1=NCCCCC1)c1ccccc1`: the cell number change is -9.34%.

For the compound `COc1ccc(Oc2cc(Cl)nc(N)n2)cc1`, the cell number change was -8.48%.

Turning to `O=Cc1ccc(-c2ccc([N+](=O)[O-])cc2Cl)o1`, the cell number change was -15.4%.

As for `COCCNC(=O)c1ccc(C2SCC(=O)N2CCc2ccccc2)cc1` (stereo unspecified), the cell number change amounted to 11.6%. Under setting [2], the concentration at half-maximal activity (AC50) is 6.51 µM [falling, single point].

Take `CCC(C)Nc1nc(SC(C(C)=O)C(C)=O)nc(N(C)C)n1` (stereo unspecified): the cell number change was -21%. In addition, the AC50 under setting [2] is 8.2 µM [rising, partial curve].

With `O=c1oc2ccccc2c(N2CCOCC2)c1[N+](=O)[O-]`, the AC50 under setting [1] was 4.61 µM [falling, partial curve].

As to `CCN(CC)c1ccc(/C=N/NS(=O)(=O)c2ccc(CNC(C)=O)cc2)cc1`, the cell number change is -10.2%. The AC50 under setting [2] is 10.3 µM [falling, partial curve, poor fit].

In the case of `S=C(NCc1ccco1)Nc1cc(-c2ccccc2)[nH]n1`, the cell number change was -17.8%. Besides, the AC50 under setting [1] was 0.116 µM [falling, full curve, poor fit]. Also, the AC50 under setting [2] was 0.146 µM [falling, full curve, poor fit].

With `Cc1ccc(CN2CCN(/N=C\c3cccc([N+](=O)[O-])c3)CC2)cc1`, the cell number change was 18.1%. Further, the AC50 under setting [2] is 2.31 µM [rising, single point].

As for `O=C(NCCN1CCNC1=O)C1CCC(=O)N(Cc2ccccc2F)C1` (stereo unspecified), the cell number change was 22.3%. The AC50 under setting [2] was 20.6 µM [rising, partial curve].

On to `Cn1cc(SCC(=O)NC2CCCCC2)c2ccccc21`, for which the cell number change is 42.9%. Further, the half-maximal activity concentration (AC50) under setting [2] is 23.1 µM [rising, single point].

As for `COc1ccc(-c2nnc(SCC(=O)c3cccs3)o2)c(OC)c1`, the cell number change was -32.5%. The AC50 under setting [1] is 18.4 µM [falling, single point].

Turning to `N#C/C(=N\Nc1ccc(Cl)cc1)C(=O)c1ccsc1`, the cell number change is -16.8%. Besides, under setting [2], the AC50 was 18.4 µM [falling, partial curve].

Take `CCCCSc1nc2c(c(=O)[nH]c(=O)n2C)n1CCc1ccccc1`: the cell number change is -79.8%. Also, the AC50 under setting [1] is 20.6 µM [falling, single point].

As to `O=C(O)c1ccc(CN(Cc2ccccc2)S(=O)(=O)c2ccc(Cl)cc2)cc1`, the cell number change came out at 9.52%. The AC50 under setting [2] is 29.1 µM [rising, single point].

For the compound `CNC(=O)Cn1nc(C)c2ccccc2c1=O`, the cell number change is -5.3%.

With `COc1ccc(CNC(=O)CSc2nnc(C)c(=O)[nH]2)cc1`, the cell number change is 14.2%. The AC50 under setting [2] is 29.1 µM [rising, single point].

On to `CCOc1ccc(-c2cc(CCCC(=O)NCc3ccc(C)cc3)no2)cc1`, for which the cell number change was determined as 1.84%. The concentration at half-maximal activity (AC50) under setting [1] was 2.59 µM [rising, partial curve]. Besides, the AC50 under setting [2] is 18.4 µM [falling, single point].

Regarding `Cn1c(=O)n(C)c2cc(CNc3ccc(N4CCOCC4)c(C(=O)O)c3)ccc21`, the cell number change came to 67.1%. For the same compound, the AC50 under setting [1] was 23.1 µM [rising, single point].

Consider `O=C(CNC(=O)c1ccccc1Cl)NCC(c1cccs1)N1CCOCC1` (stereo unspecified), for which the cell number change turned out to be 1.41%. In addition, the AC50 under setting [2] is 23.1 µM [falling, single point].

In the case of `CCN(CC)Cc1c(O)ccc2c(C)c(CC(=O)OC)c(=O)oc12`, the cell number change is -35.6%. In addition, the AC50 under setting [1] was 5.8 µM [falling, partial curve, poor fit]. The AC50 under setting [2] is 6.51 µM [falling, single point].

These data come from PubChem BioAssay AID2685 (National Center for Advancing Translational Sciences (NCATS), 2010).
